From the supplement of paper PMC10689618
Counter-ions that a name gives are not always drawn. Some of the results follow. Many values rest on one well or one pass, so single values are uncertain.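 Labelled rat cortical synaptosomes were engulfed by primary human fetal astrocytes. Engulfment equaled a red/green ratio, corrected for calcein live-cell signal and normalized to the plate median. Compounds were toxic when calcein dropped over 30%, and reduced phagocytosis when below 70% of the median above 5 µM.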

System: Human fetal astrocytes
Experiment: synaptosome phagocytosis (pHrodo/calcein intensity ratio) relative to plate median of data wells; higher = more phagocytosis
Details: 11.11 µM; 24 h

`O=[N+]([O-])c1cccc2c(Br)[nH]nc12` [3-Bromo-7-nitroindazole] was tested. Which synaptosome phagocytosis did it give?
The synaptosome phagocytosis was 110%.

For `CCC(C)N(C)C(=O)c1cc2ccccc2c(-c2ccccc2Cl)n1` (centres undefined), which synaptosome phagocytosis is on record?
The synaptosome phagocytosis was 103%.

How did the synaptosome phagocytosis turn out when `OC(CN1CCN(c2cccc(Cl)c2)CC1)C(c1ccccc1)c1ccccc1` (centres undefined) was run?
The synaptosome phagocytosis was 107%.

For `CSC(=N)N` [S-Methylisothiourea hemisulfate], which synaptosome phagocytosis is on record?
Its synaptosome phagocytosis is 124%.

With `Cc1ccccc1N1C(=O)c2cc(S(N)(=O)=O)c(Cl)cc2NC1C` (centres undefined) [Metolazone] as the molecule, how does the synaptosome phagocytosis read?
The synaptosome phagocytosis was 134%.

`CC(C)(C)NCC(O)c1ccc(O)c(CO)c1` (centres undefined) [Albuterol hemisulfate] was tested. Which synaptosome phagocytosis did it give?
The synaptosome phagocytosis was 109%.

With `C[C@]12CC[C@@H]3c4ccc(O)cc4CC[C@H]3[C@@H]1CCC2=O` [Estrone] as the molecule, how does the synaptosome phagocytosis read?
Its synaptosome phagocytosis is 108%.

How did the synaptosome phagocytosis turn out when `Nc1nc2[nH]c(=O)cnc2c(=O)[nH]1` [Isoxanthopterin] was run?
Its synaptosome phagocytosis is 110%.

`CC[N+](CC)(CC)CC` [Tetraethylammonium chloride] was tested. Which synaptosome phagocytosis did it give?
Its synaptosome phagocytosis is 114%.

Which synaptosome phagocytosis does the source give for `O=C(CCCN1CC=C(n2c(=O)[nH]c3ccccc32)CC1)c1ccc(F)cc1` [Droperidol] here?
Its synaptosome phagocytosis is 75.5%.

With `CCn1c(=O)[nH]c2cc(Cl)c(Cl)cc21` as the molecule, how does the synaptosome phagocytosis read?
Its synaptosome phagocytosis is 106%.

`C=C[C@H]1CN2CC[C@H]1C[C@H]2[C@H](O)c1ccnc2ccc(OC)cc12` [Quinine sulfate] was tested. Which synaptosome phagocytosis did it give?
Its synaptosome phagocytosis is 79.6%.

Which synaptosome phagocytosis does the source give for `CC(C)C(=O)Nc1ccc([N+](=O)[O-])c(C(F)(F)F)c1` [Flutamide] here?
Its synaptosome phagocytosis is 97.8%.

How did the synaptosome phagocytosis turn out when `NCCNC(=O)c1ccc(Cl)cc1` [Ro 16-6491 hydrochloride] was run?
Its synaptosome phagocytosis is 111%.

With `Cn1c(=O)c2[nH]c(-c3ccc(S(=O)(=O)O)cc3)nc2n(C)c1=O` [8-(p-Sulfophenyl)theophylline] as the molecule, how does the synaptosome phagocytosis read?
Its synaptosome phagocytosis is 117%.

For `CN(C(=O)CCCOc1ccc2[nH]c(=O)ccc2c1)C1CCCCC1` [Cilostamide], which synaptosome phagocytosis is on record?
Its synaptosome phagocytosis is 106%.

For `Oc1ncnc2[nH]ncc12` [Allopurinol], which synaptosome phagocytosis is on record?
The synaptosome phagocytosis was 99.7%.

With `N=C(N)c1ccccc1` [Benzamidine hydrochloride] as the molecule, how does the synaptosome phagocytosis read?
Its synaptosome phagocytosis is 110%.

How did the synaptosome phagocytosis turn out when `COc1ccc(CCN(C)CCCC(C#N)(c2cc(OC)c(OC)c(OC)c2)C(C)C)cc1OC` (racemic) [(±)-Methoxyverapamil hydrochloride] was run?
Its synaptosome phagocytosis is 115%.

Which synaptosome phagocytosis does the source give for `O=[N+]([O-])c1cc2nc(O)c(O)nc2cc1[N+](=O)[O-]` here?
Its synaptosome phagocytosis is 125%.

How did the synaptosome phagocytosis turn out when `Nc1ncnc2c1nc(Br)n2C1OC2COP(=O)(O)O[C@@H]2C1O` (some centres undefined) [8-Bromo-cAMP sodium] was run?
Its synaptosome phagocytosis is 112%.

With `CCOC(=O)C1=C(C)NC(C)=C(C(=O)OC)C1c1cccc([N+](=O)[O-])c1` (centres undefined) [Nitrendipine] as the molecule, how does the synaptosome phagocytosis read?
Its synaptosome phagocytosis is 135%.

With `CC1(NC(=O)CBr)CCC(C(C)(C)NCC(O)COc2cccc3[nH]ccc23)CC1` (racemic) [(±)-Pindobind] as the molecule, how does the synaptosome phagocytosis read?
The synaptosome phagocytosis was 98.9%.

Which synaptosome phagocytosis does the source give for `COc1ccc2c(c1)c(CC(=O)N1CCOCC1)c(C)n2C(=O)c1ccc(Cl)cc1` [Indomethacin morpholinylamide] here?
The synaptosome phagocytosis was 138%.

For `CO/N=C(\C(=O)N[C@@H]1C(=O)N2C(C(=O)O)=C(COC(C)=O)CS[C@H]12)c1csc(N)n1` [Cefotaxime sodium], which synaptosome phagocytosis is on record?
The synaptosome phagocytosis was 90.1%.

Which synaptosome phagocytosis does the source give for `COc1cc(NS(C)(=O)=O)ccc1Nc1c2ccccc2nc2ccccc12` [Amsacrine hydrochloride] here?
The synaptosome phagocytosis was 72.8%.

Which synaptosome phagocytosis does the source give for `OC(CN1CCC(Cc2ccc(F)cc2)CC1)c1ccc(Cl)cc1` (centres undefined) [Eliprodil] here?
Its synaptosome phagocytosis is 59.4%.

`CC(C)NC[C@@H](O)COc1ccc(CC(N)=O)cc1` [R(+)-Atenolol] was tested. Which synaptosome phagocytosis did it give?
The synaptosome phagocytosis was 102%.

For `CNC(=O)c1cc2c(cn1)[nH]c1ccccc12` [N-Methyl-beta-carboline-3-carboxamide], which synaptosome phagocytosis is on record?
Its synaptosome phagocytosis is 109%.

How did the synaptosome phagocytosis turn out when `CN1CCC[C@@H]1c1cccnc1.Cc1ccc(C(=O)O[C@H](C(=O)O)[C@@H](OC(=O)c2ccc(C)cc2)C(=O)O)cc1` [(+)-Nicotine (+)-di-p-toluoyl tartrate] was run?
Its synaptosome phagocytosis is 107%.

Which synaptosome phagocytosis does the source give for `O=C(O)c1cc(=O)c2c(Cl)cc(Cl)cc2[nH]1` [5,7-Dichlorokynurenic acid] here?
Its synaptosome phagocytosis is 107%.

Which synaptosome phagocytosis does the source give for `CNC(=O)[C@H]1O[C@@H](n2cnc3c(NCc4cccc(I)c4)ncnc32)[C@H](O)[C@@H]1O` here?
The synaptosome phagocytosis was 131%.

`Cn1ccc2cc3c(cc21)CCN3C(=O)Nc1cccnc1` was tested. Which synaptosome phagocytosis did it give?
Its synaptosome phagocytosis is 109%.

`CC[C@H](NC(=O)c1c(C)c(-c2ccccc2)nc2ccccc12)c1ccccc1` was tested. Which synaptosome phagocytosis did it give?
Its synaptosome phagocytosis is 108%.

How did the synaptosome phagocytosis turn out when `Oc1cc2c(c(Cl)c1O)CCNCC2c1ccccc1` (racemic) [(±)-6-Chloro-PB hydrobromide] was run?
Its synaptosome phagocytosis is 99.1%.

How did the synaptosome phagocytosis turn out when `CCOC(=O)c1cnc2c(cnn2CC)c1NN=C(C)C` [Etazolate hydrochloride] was run?
The synaptosome phagocytosis was 93.8%.

`CC(C)=CCC/C(C)=C/CC/C(C)=C/CSc1ccccc1C(=O)O` [Farnesylthiosalicylic acid] was tested. Which synaptosome phagocytosis did it give?
The synaptosome phagocytosis was 111%.

`CC(=O)NCCc1c[nH]c2ccc(O)cc12` [N-Acetyl-5-hydroxytryptamine] was tested. Which synaptosome phagocytosis did it give?
The synaptosome phagocytosis was 101%.

With `O=c1[nH]c2cc(Cl)ccc2c(O)c1-c1cccc(Oc2ccccc2)c1` as the molecule, how does the synaptosome phagocytosis read?
Its synaptosome phagocytosis is 105%.
